Where two headings read alike, the source gives them in different places.
What was measured:
[1] = Fluorescence quenching of n-AS probes in MLVs of EPC (drug location); assay type: physicochemical
Experimental: Three independent experiments were carried out.
This type of fluorescence quenching can be described by the Stern-Volmer linear plots (Equation 5 and Figures 7A,B) where the fluorescence emission intensities of the labeled nanocarrier in the absence (I0) and in the presence (I) of the quencher (drugs) are plotted against the quencher concentration [Q] and it is possible to obtain linear relations in which the intercept is zero and the slope corresponds to Stern-Volmer constant, KSVapp (Lakowicz, [2014]):
The Stern-Volmer plots of the fluorescence quenching provoked by increasing concentrations of Indomethacin are not linear and present positive deviations (Figure 7C). Positive deviations from the Stern-Volmer equation are often observed when the extent of quenching is large and these deviations from linearity indicate that the quenching mechanism cannot be explained solely by a collisional mechanism (Lakowicz, [2014]). There is an apparent static quenching component caused by the close proximity of deactivating drug and fluorophore at excitation moment. The quenching is still collisional, but the existence of fluorophores and quenchers located very close to each other causes an immediate fluorescence deactivation and therefore the fluorophore and the drug appear to form non-fluorescent complexes (Lakowicz, [2014]). This type of fluorescence quenching is usually interpreted in terms of a “sphere of action” (Equation 7) within which the possibility of deactivation is equal to unity (Lakowicz, [2014]).
(7) I0/I=(1+KSVapp[Q])e^[Q]Vapp
By representing graphically I0/(Ie^[Q]Vapp) as a function of [Q], linear relations were obtained in which the slope corresponds to KSVapp (Figure 7D). Thus, Indomethacin quenching efficiency followed approximately the same order as that obtained for Acemetacin: 2-AS < 6-AS < 9-AS < 12-AS.

[2] = for NSAID concentration required to obtain 25% of fluidizing effect (FE25): MLVs of EPC 500 μM, pH 7.4, concentration in lipid phase; for Rotational correlation time θ of n-AS probes with increasing drug concentrations (fluidizing effect): MLVs of EPC

| SMILES | Fluorescence apparent bimolecular constant, Kqapp ([1]; 2-AS probe in MLVs at 25.0°C) | Fluorescence apparent bimolecular constant, Kqapp ([1]; 6-AS probe in MLVs at 25.0°C) | Fluorescence apparent bimolecular constant, Kqapp ([1]; 9-AS probe in MLVs at 25.0°C) | Fluorescence apparent bimolecular constant, Kqapp ([1]; 12-AS probe in MLVs at 25.0°C) | NSAID concentration required to obtain 25% of fluidizing effect (FE25) ([2]; 2-AS probe) | NSAID concentration required to obtain 25% of fluidizing effect (FE25) ([2]; 6-AS probe) | NSAID concentration required to obtain 25% of fluidizing effect (FE25) ([2]; 9-AS probe) | NSAID concentration required to obtain 25% of fluidizing effect (FE25) ([2]; 12-AS probe) | Rotational correlation time θ of n-AS probes with increasing drug concentrations (fluidizing effect) [2] |
| --- | --- | --- | --- | --- | --- | --- | --- | --- | --- |
| COc1ccc2c(c1)c(CC(=O)OCC(=O)O)c(C)n2C(=O)c1ccc(Cl)cc1 [Acemetacin] | 5.194 ± 0.006 (x10^−11) M^−1s^−1 | 4.424 ± 0.002 (x10^−11) M^−1s^−1 | 4.804 ± 0.005 (x10^−11) M^−1s^−1 | 5.675 ± 0.005 (x10^−11) M^−1s^−1 | 0.1492 ± 0.0005921 M | 0.1346 ± 0.0005386 M | 0.0879 ± 0.0003514 M | 0.0459 ± 0.0001838 M | θ values decreased |
| Cc1ccc(C(=O)c2ccc(CC(=O)O)n2C)cc1 [Tolmetin] | 0.768 ± 0.001 (x10^−11) M^−1s^−1 | 0.638 ± 0.001 (x10^−11) M^−1s^−1 | 0.545 ± 0.001 (x10^−11) M^−1s^−1 | 0.612 ± 0.001 (x10^−11) M^−1s^−1 | 0.4112 ± 0.0001122 M | 0.3955 ± 0.0001582 M | 0.3633 ± 0.0001453 M | 0.2272 ± 0.00009089 M | θ values decreased |
| COc1ccc2c(c1)c(CC(=O)O)c(C)n2C(=O)c1ccc(Cl)cc1 [Indomethacin] | 4.013 ± 0.006 (x10^−11) M^−1s^−1 | 4.029 ± 0.001 (x10^−11) M^−1s^−1 | 4.086 ± 0.005 (x10^−11) M^−1s^−1 | 4.181 ± 0.002 (x10^−11) M^−1s^−1 | 0.1684 ± 0.0005567 M | 0.1255 ± 0.0005021 M | 0.0953 ± 0.0003812 M | 0.0532 ± 0.0002129 M | θ values decreased |

— article PMC6080416, “Spectroscopic Studies as a Toolbox for Biophysical and Chemical Characterization of Lipid-Based Nanotherapeutics” (Frontiers in Chemistry, 2018)
